Our source for the binding values is publication PMC10192437.

Results are given in words; binding and its absence hold for the method and conditions named. In cells and extracts the contact can be indirect. Some entries that bind do so weakly or less than the wild type.

Experiment [1] has as its target T1, mesoderm-specific transcript (MEST) (UniProt Q5EB52).
T1 sequence: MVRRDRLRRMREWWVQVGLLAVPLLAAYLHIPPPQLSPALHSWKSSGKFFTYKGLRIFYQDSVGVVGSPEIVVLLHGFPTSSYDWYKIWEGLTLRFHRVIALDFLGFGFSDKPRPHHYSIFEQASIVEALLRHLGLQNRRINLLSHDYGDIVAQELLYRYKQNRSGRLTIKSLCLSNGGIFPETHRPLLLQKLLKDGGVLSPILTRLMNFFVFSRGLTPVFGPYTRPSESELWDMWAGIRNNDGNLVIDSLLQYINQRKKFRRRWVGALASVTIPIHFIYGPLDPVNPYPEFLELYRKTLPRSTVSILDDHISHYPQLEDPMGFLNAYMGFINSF
Kind of experiment: co-IP; ESCC cell lysates, protein A/G Sepharose beads, Western blot; also done in the absence or presence of inhibitors (G699-0288 markedly reduced the interaction, Fig. 7g).

The target of experiment [2] is T2, wild-type MEST (MEST-expressing plasmid) (UniProt Q5EB52).
T2 sequence: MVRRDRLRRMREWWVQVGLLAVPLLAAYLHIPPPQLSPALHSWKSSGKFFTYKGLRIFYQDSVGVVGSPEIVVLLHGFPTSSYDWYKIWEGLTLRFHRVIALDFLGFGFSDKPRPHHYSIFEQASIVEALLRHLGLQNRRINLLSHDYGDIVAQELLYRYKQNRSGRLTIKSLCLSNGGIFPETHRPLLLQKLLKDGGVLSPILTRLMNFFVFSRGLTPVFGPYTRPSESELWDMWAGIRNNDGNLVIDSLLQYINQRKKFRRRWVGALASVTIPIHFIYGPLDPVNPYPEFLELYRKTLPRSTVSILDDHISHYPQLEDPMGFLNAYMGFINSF
Kind of experiment: co-IP; MEST and PURA plasmids (wild type or mutant) cotransfected into ESCC cells (KYSE150-Luc).

B1: purine rich element binding protein A (PURA) (protein, UniProt Q00577 1-322)
chain: MADRDSGSEQGGAALGSGGSLGHPGSGSGSGGGGGGGGGGGGSGGGGGGAPGGLQHETQELASKRVDIQNKRFYLDVKQNAKGRFLKIAEVGAGGNKSRLTLSMSVAVEFRDYLGDFIEHYAQLGPSQPPDLAQAQDEPRRALKSEFLVRENRKYYMDLKENQRGRFLRIRQTVNRGPGLGSTQGQTIALPAQGLIEFRDALAKLIDDYGVEEEPAELPEGTSLTVDNKRFFFDVGSNKYGVFMRVSEVKPTYRNSITVPYKVWAKFGHTFCKYSEEMKKIQEKQREKRAACEQLHQQQQQQQEETAAATLLLQGEEEGEED
For the molecule B1, the binding result in experiment [1] is “binds”.

B2: wild-type (WT) PURA (PURA-expressing plasmid) (protein, UniProt Q00577 1-322)
chain: MADRDSGSEQGGAALGSGGSLGHPGSGSGSGGGGGGGGGGGGSGGGGGGAPGGLQHETQELASKRVDIQNKRFYLDVKQNAKGRFLKIAEVGAGGNKSRLTLSMSVAVEFRDYLGDFIEHYAQLGPSQPPDLAQAQDEPRRALKSEFLVRENRKYYMDLKENQRGRFLRIRQTVNRGPGLGSTQGQTIALPAQGLIEFRDALAKLIDDYGVEEEPAELPEGTSLTVDNKRFFFDVGSNKYGVFMRVSEVKPTYRNSITVPYKVWAKFGHTFCKYSEEMKKIQEKQREKRAACEQLHQQQQQQQEETAAATLLLQGEEEGEED
Consider B2, for which the binding result in experiment [2] was “binds”.
